Laboratory results: publication doi:10.1101/2023.01.05.522938
No constants are given. Whether binding was seen depends on the method and setting. Binding seen in cells or lysates may run through a third protein. Here binding means that the protein was enriched with, or labelled near, the bait; the list need not be complete.

What was measured:
[1] = biological target: CPN60A (Chlamydomonas reinhardtii (endogenous in strain CW15(2)/CF185)); assay: affinity purification with mass spectrometry
[2] = biological target: CPN20 (Chlamydomonas reinhardtii (endogenous in strain CW15(2)/CF185)); assay: affinity purification with mass spectrometry

| Binder | binding [1] | binding [2] |
| --- | --- | --- |
| GAPA1 (glyceraldehyde-3-phosphate dehydrogenase A subunit) (protein, UniProt P50362 35-374) EKKIRVAINGFGRIGRNFLRCWHGRQNTLLDVVAINDSGGVKQASHLLKYDSTLGTFAADVKIVDDSHISVDGKQIKIVSSRDPLQLPWKEMNIDLVIEGTGVFIDKVGAGKHIQAGASKVLITAPAKDKDIPTFVVGVNEGDYKHEYPIISNASCTTNCLAPFVKVLEQKFGIVKGTMTTTHSYTGDQRLLDASHRDLRRARAAALNIVPTTTGAAKAVSLVLPSLKGKLNGIALRVPTPTVSVVDLVVQVEKKTFAEEVNAAFREAANGPMKGVLHVEDAPLVSIDFKCTDQSTSIDASLTMVMGDDMVKVVAWYDNEWGYSQRVVDLAEVTAKKWVA | binds |  |
| ATPC (gamma subunit of the CF1 head of the chloroplast ATP-synthase) (protein, UniProt P12113 36-358) GLKEVRDRIASVKNTQKITDAMKLVAAAKVRRAQEAVVNGRPFSENLVKVLYGVNQRVRQEDVDSPLCAVRPVKSVLLVVLTGDRGLCGGYNNFIIKKTEARYRELTAMGVKVNLVCVGRKGAQYFARRKQYNIVKSFSLGAAPSTKEAQGIADEIFASFIAQESDKVELVFTKFISLINSNPTIQTLLPMTPMGELCDVDGKCVDAADDEIFKLTTKGGEFAVEREKTTIETEALDPSLIFEQEPAQILDALLPLYMSSCLLRSLQEALASELAARMNAMNNASDNAKELKKGLTVQYNKQRQAKITQELAEIVGGAAATSG | binds | binds |
